Experimental data: PubChem BioAssay AID1224830 (NIAID, 2016)
In all, the deposit lists about 18,000 reagents; below is a random part of them. About 2,900 of them (16%) were called active. 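Calls are made per well; low scores hint the gene aids the LPS response, high scores that it dampens it.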 Repeated entries: four replicate wells of each siRNA pool. Reagent sequences are not shown.

Assay: 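Regulators of TLR4 signalling towards TNF-alpha in macrophage-like cells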 (primary screen)
System: human THP-1 monocytic leukaemia cells, TNF dual-luciferase reporter clone, PMA-differentiated to macrophage-like cells
Reagent: siRNA pool against human genes, 50 nM
Duration: LPS for 4 h, given about 3 days after siRNA transfection
Conditions: bacterial LPS (TLR4 ligand), 10 ng/ml
Read-out: 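TNF firefly reporter luminescence divided by renilla, normalised to the plate median, then turned into a robust z-score for each replicate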
Scale: TNF reporter robust z-score: higher = stronger TNF reporter response to LPS
Rule for the call: 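Each well counts as active if its z-score is over 2.8 or under -1.5; controls are left without a call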

HLA-DOA | TNF reporter robust z-score: -1.08; Outcome: inactive
HLA-DOA | TNF reporter robust z-score: -0.56; Outcome: inactive
HLA-DOA | TNF reporter robust z-score: -0.44; Outcome: inactive
HLA-DOA | TNF reporter robust z-score: -0.48; Outcome: inactive
COPS5 | TNF reporter robust z-score: -1.27; Outcome: inactive
COPS5 | TNF reporter robust z-score: -1.29; Outcome: inactive
COPS5 | TNF reporter robust z-score: -1.52; Outcome: active
COPS5 | TNF reporter robust z-score: -1.59; Outcome: active
CARNMT1 | TNF reporter robust z-score: -0.22; Outcome: inactive
CARNMT1 | TNF reporter robust z-score: 0.92; Outcome: inactive
CARNMT1 | TNF reporter robust z-score: 0.74; Outcome: inactive
CARNMT1 | TNF reporter robust z-score: 0.18; Outcome: inactive
VPS26B | TNF reporter robust z-score: 0.19; Outcome: inactive
VPS26B | TNF reporter robust z-score: -1.11; Outcome: inactive
VPS26B | TNF reporter robust z-score: 0.24; Outcome: inactive
VPS26B | TNF reporter robust z-score: -0.16; Outcome: inactive
KRTAP22-1 | TNF reporter robust z-score: -0.11; Outcome: inactive
KRTAP22-1 | TNF reporter robust z-score: 0; Outcome: inactive
KRTAP22-1 | TNF reporter robust z-score: 0.22; Outcome: inactive
KRTAP22-1 | TNF reporter robust z-score: 0.36; Outcome: inactive
C10orf53 | TNF reporter robust z-score: -0.07; Outcome: inactive
C10orf53 | TNF reporter robust z-score: -0.02; Outcome: inactive
C10orf53 | TNF reporter robust z-score: -0.88; Outcome: inactive
C10orf53 | TNF reporter robust z-score: 0.89; Outcome: inactive
PMPCB | TNF reporter robust z-score: -0.45; Outcome: inactive
PMPCB | TNF reporter robust z-score: -1.27; Outcome: inactive
PMPCB | TNF reporter robust z-score: -1.02; Outcome: inactive
PMPCB | TNF reporter robust z-score: 2.43; Outcome: inactive
ITIH3 | TNF reporter robust z-score: -0.54; Outcome: inactive
ITIH3 | TNF reporter robust z-score: -0.35; Outcome: inactive
ITIH3 | TNF reporter robust z-score: -1.25; Outcome: inactive
ITIH3 | TNF reporter robust z-score: -0.44; Outcome: inactive

Hits (from the list above):
COPS5 | TNF reporter robust z-score: -1.52; Outcome: active
COPS5 | TNF reporter robust z-score: -1.59; Outcome: active
